In the supplement of paper PMC8728848:
Some of the results follow.

Assays:
Test in all cases: glycan array binding signal (z-score within array); higher = stronger binding
Settings in all cases: glycan notation: IUPAC condensed, linker removed
[1] = target: Neu5Ac(a2-3)Gal(b1-3)GalNAc
How it was run: (§1)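 Negative Z-scores can be read as non-binding. The Z-score is calculated within each array and then averaged across arrays of one protein sequence at different concentrations or buffers and across linkers. Arrays, 3228 in all, were curated from the Consortium for Functional Glycomics database and kept only where the protein sequence was available.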

[2] = target: Neu5Ac(a2-3)Gal(b1-3)GalNAc(b1-3)Gal(a1-4)Gal(b1-4)Glc
How it was run: as §1

[3] = target: Neu5Ac(a2-3)Gal(b1-3)GalNAc(b1-4)[Neu5Ac(a2-3)]Gal(b1-4)Glc
How it was run: as §1

[4] = target: Neu5Ac(a2-3)Gal(b1-3)GalNAc(b1-4)[Neu5Ac(a2-8)Neu5Ac(a2-3)]Gal(b1-4)Glc
How it was run: as §1

[5] = target: Neu5Ac(a2-3)Gal(b1-3)GalNAc6S
How it was run: as §1

[6] = target: Neu5Ac(a2-3)Gal(b1-3)GlcNAc
How it was run: as §1

[7] = target: Neu5Ac(a2-3)Gal(b1-3)GlcNAc(b1-2)Man
How it was run: as §1

[8] = target: Neu5Ac(a2-3)Gal(b1-3)GlcNAc(b1-2)Man(a1-3)[GlcNAc(b1-4)][Neu5Ac(a2-3)Gal(b1-3)GlcNAc(b1-2)Man(a1-6)]Man(b1-4)GlcNAc(b1-4)GlcNAc
How it was run: as §1

[9] = target: Neu5Ac(a2-3)Gal(b1-3)GlcNAc(b1-2)Man(a1-3)[Neu5Ac(a2-3)Gal(b1-3)GlcNAc(b1-2)Man(a1-6)]Man(b1-4)GlcNAc(b1-4)GlcNAc
How it was run: as §1

[10] = target: Neu5Ac(a2-3)Gal(b1-3)GlcNAc(b1-3)Gal(b1-3)GlcNAc
How it was run: as §1

[11] = target: Neu5Ac(a2-3)Gal(b1-3)GlcNAc(b1-3)Gal(b1-4)GlcNAc
How it was run: as §1

[12] = target: Neu5Ac(a2-3)Gal(b1-3)GlcNAc(b1-3)GalNAc
How it was run: as §1

[13] = target: Neu5Ac(a2-3)Gal(b1-3)GlcNAc(b1-4)Gal(b1-4)Glc
How it was run: as §1

[14] = target: Neu5Ac(a2-3)Gal(b1-3)GlcNAc(b1-6)GalNAc
How it was run: as §1

[15] = target: Neu5Ac(a2-3)Gal(b1-3)GlcNAc6S
How it was run: as §1

[16] = target: Neu5Ac(a2-3)Gal(b1-3)[Fuc(a1-4)]GlcNAc
How it was run: as §1

[17] = target: Neu5Ac(a2-3)Gal(b1-3)[Fuc(a1-4)]GlcNAc(b1-3)Gal(b1-3)[Fuc(a1-4)]GlcNAc
How it was run: as §1

[18] = target: Neu5Ac(a2-3)Gal(b1-3)[Fuc(a1-4)]GlcNAc(b1-3)Gal(b1-4)[Fuc(a1-3)]GlcNAc
How it was run: as §1

[19] = target: Neu5Ac(a2-3)Gal(b1-3)[GlcNAc(b1-6)]GalNAc
How it was run: as §1

[20] = target: Neu5Ac(a2-3)Gal(b1-3)[Neu5Ac(a2-6)]GalNAc
How it was run: as §1

[21] = target: Neu5Ac(a2-3)Gal(b1-3)[Neu5Ac(a2-6)]GlcNAc(b1-3)[Fuc(a1-3)[Gal(b1-4)]GlcNAc(b1-6)]Gal(b1-4)Glc
How it was run: as §1

[22] = target: Neu5Ac(a2-3)Gal(b1-3)]Neu5Ac(a2-3)Gal(b1-4)]GlcNAc
How it was run: as §1

Neu5Ac(a2-3)Gal(b1-4)Glc = target: Neu5Ac(a2-3)Gal(b1-4)Glc
How it was run: as §1

[23] = target: Neu5Ac(a2-3)Gal(b1-4)GlcNAc
How it was run: as §1

[24] = target: Neu5Ac(a2-3)Gal(b1-4)GlcNAc(b1-2)Man
How it was run: as §1

[25] = target: Neu5Ac(a2-3)Gal(b1-4)GlcNAc(b1-2)Man(a1-3)[GlcNAc(b1-4)][Neu5Ac(a2-3)Gal(b1-4)GlcNAc(b1-2)Man(a1-6)]Man(b1-4)GlcNAc(b1-4)GlcNAc
How it was run: as §1

[26] = target: Neu5Ac(a2-3)Gal(b1-4)GlcNAc(b1-2)Man(a1-3)[Neu5Ac(a2-3)Gal(b1-4)GlcNAc(b1-2)Man(a1-6)]Man(b1-4)GlcNAc(b1-4)GlcNAc
How it was run: as §1

[27] = target: Neu5Ac(a2-3)Gal(b1-4)GlcNAc(b1-2)Man(a1-3)[Neu5Ac(a2-3)Gal(b1-4)GlcNAc(b1-2)Man(a1-6)]Man(b1-4)GlcNAc(b1-4)[Fuc(a1-6)]GlcNAc
How it was run: as §1

[28] = target: Neu5Ac(a2-3)Gal(b1-4)GlcNAc(b1-2)Man(a1-3)[Neu5Ac(a2-6)Gal(b1-4)GlcNAc(b1-2)Man(a1-6)]Man(b1-4)GlcNAc(b1-4)GlcNAc
How it was run: as §1

[29] = target: Neu5Ac(a2-3)Gal(b1-4)GlcNAc(b1-2)[Neu5Ac(a2-3)Gal(b1-4)GlcNAc(b1-4)]Man(a1-3)[GlcNAc(b1-4)][Neu5Ac(a2-3)Gal(b1-4)GlcNAc(b1-2)[Neu5Ac(a2-3)Gal(b1-4)GlcNAc(b1-6)]Man(a1-6)]Man(b1-4)GlcNAc(b1-4)GlcNAc
How it was run: as §1

[30] = target: Neu5Ac(a2-3)Gal(b1-4)GlcNAc(b1-2)[Neu5Ac(a2-3)Gal(b1-4)GlcNAc(b1-4)]Man(a1-3)[GlcNAc(b1-4)][Neu5Ac(a2-3)Gal(b1-4)GlcNAc(b1-4)Man(a1-6)]Man(b1-4)GlcNAc(b1-4)GlcNAc
How it was run: as §1

[31] = target: Neu5Ac(a2-3)Gal(b1-4)GlcNAc(b1-2)[Neu5Ac(a2-3)Gal(b1-4)GlcNAc(b1-6)]Man(a1-6)[Neu5Ac(a2-3)Gal(b1-4)GlcNAc(b1-2)Man(a1-3)]Man(b1-4)GlcNAc(b1-4)GlcNAc
How it was run: as §1

[32] = target: Neu5Ac(a2-3)Gal(b1-4)GlcNAc(b1-2)[Neu5Ac(a2-3)Gal(b1-4)GlcNAc(b1-6)]Man(a1-6)[Neu5Ac(a2-3)Gal(b1-4)GlcNAc(b1-2)Man(a1-3)][GlcNAc(b1-4)]Man(b1-4)GlcNAc(b1-4)GlcNAc
How it was run: as §1

[33] = target: Neu5Ac(a2-3)Gal(b1-4)GlcNAc(b1-3)Gal
How it was run: as §1

[34] = target: Neu5Ac(a2-3)Gal(b1-4)GlcNAc(b1-3)Gal(b1-3)GlcNAc
How it was run: as §1

[35] = target: Neu5Ac(a2-3)Gal(b1-4)GlcNAc(b1-3)Gal(b1-4)GlcNAc
How it was run: as §1

[36] = target: Neu5Ac(a2-3)Gal(b1-4)GlcNAc(b1-3)Gal(b1-4)GlcNAc(b1-2)Man(a1-3)[Neu5Ac(a2-3)Gal(b1-4)GlcNAc(b1-3)Gal(b1-4)GlcNAc(b1-2)Man(a1-6)]Man(b1-4)GlcNAc(b1-4)GlcNAc
How it was run: as §1

[37] = target: Neu5Ac(a2-3)Gal(b1-4)GlcNAc(b1-3)Gal(b1-4)GlcNAc(b1-3)Gal(b1-4)GlcNAc
How it was run: as §1

[38] = target: Neu5Ac(a2-3)Gal(b1-4)GlcNAc(b1-3)Gal(b1-4)GlcNAc(b1-3)Gal(b1-4)GlcNAc(b1-2)Man(a1-3)[Neu5Ac(a2-3)Gal(b1-4)GlcNAc(b1-3)Gal(b1-4)GlcNAc(b1-3)Gal(b1-4)GlcNAc(b1-2)Man(a1-6)]GalNAc
How it was run: as §1

[39] = target: Neu5Ac(a2-3)Gal(b1-4)GlcNAc(b1-3)Gal(b1-4)GlcNAc(b1-3)GalNAc
How it was run: as §1

[40] = target: Neu5Ac(a2-3)Gal(b1-4)GlcNAc(b1-3)Gal(b1-4)GlcNAc(b1-3)[Neu5Ac(a2-3)Gal(b1-4)GlcNAc(b1-3)Gal(b1-4)GlcNAc(b1-6)]GalNAc
How it was run: as §1

[41] = target: Neu5Ac(a2-3)Gal(b1-4)GlcNAc(b1-3)Gal(b1-4)GlcNAc(b1-6)[Gal(b1-3)]GalNAc
How it was run: as §1

[42] = target: Neu5Ac(a2-3)Gal(b1-4)GlcNAc(b1-3)Gal(b1-4)[Fuc(a1-3)]GlcNAc
How it was run: as §1

[43] = target: Neu5Ac(a2-3)Gal(b1-4)GlcNAc(b1-3)GalNAc
How it was run: as §1

[44] = target: Neu5Ac(a2-3)Gal(b1-4)GlcNAc(b1-3)[Neu5Ac(a2-3)Gal(b1-4)GlcNAc(b1-6)]GalNAc
How it was run: as §1

B1: TAL6-4LysM (Trichoderma atroviride) (protein)
chain: AADSIPSISPTGIITPTPTQSGMVSNCNKFYDVHSNDGCSAIASSQHVDLSSLYKWNPAIKTDCSGLQASVYVCIGILTTSMSTTSKLPTTTSKPSTTSKPPTGITTPTPTQSGMVKNCNKFYDVHSGDGCSAIASSQKVNLSSFYLWNPAVKTDCSGLQASVFVCIGTLTTSMSTTTSKLPTTTSKPSTTSKPPTGIITPTPTQNGMVKNCNKFYDVHSGDGCSAIASSQKVNLSSFYLWNPAVKTDCSGLQASVFVCVGTATTTTAAGITTPTPTQSGMVSGCNKFYDVHAGDGCSAIASSQKIALSSLYKWNPAVKTDCSGLQASVYICIGVGNAAAARVTGALEQKLISEEDLNSAVDHHHHHH
With B1 the “glycan array binding signal (z-score)” value [1] was -0.87, the “glycan array binding signal (z-score)” value [2] was 1.55 and the “glycan array binding signal (z-score)” value [3] was 0.854. The “glycan array binding signal (z-score)” value [4] was 0.392, the “glycan array binding signal (z-score)” value [5] was 0.743 and the “glycan array binding signal (z-score)” value [6] was 0.416. For the same binder, the “glycan array binding signal (z-score)” value [7] was -0.188, the “glycan array binding signal (z-score)” value [8] was -0.323 and the “glycan array binding signal (z-score)” value [9] was 0.679. The “glycan array binding signal (z-score)” value [10] was -0.899, the “glycan array binding signal (z-score)” value [11] was -0.568 and the “glycan array binding signal (z-score)” value [12] was 0.526. The “glycan array binding signal (z-score)” value [13] was -0.389, the “glycan array binding signal (z-score)” value [14] was -0.944 and the “glycan array binding signal (z-score)” value [15] was -0.022. For the same binder, the “glycan array binding signal (z-score)” value [16] was -1.09, the “glycan array binding signal (z-score)” value [17] was 1.41 and the “glycan array binding signal (z-score)” value [18] was 1.65. The “glycan array binding signal (z-score)” value [19] was -0.436, the “glycan array binding signal (z-score)” value [20] was 0.082 and the “glycan array binding signal (z-score)” value [21] was -1.22. For the same binder, the “glycan array binding signal (z-score)” value [22] was 0.719, the “glycan array binding signal (z-score)” value (Neu5Ac(a2-3)Gal(b1-4)Glc) was 1.22 and the “glycan array binding signal (z-score)” value [23] was -0.436. The “glycan array binding signal (z-score)” value [24] was -0.663, the “glycan array binding signal (z-score)” value [25] was -0.429 and the “glycan array binding signal (z-score)” value [26] was 0.201. For the same binder, the “glycan array binding signal (z-score)” value [27] was -0.509, the “glycan array binding signal (z-score)” value [28] was -0.107 and the “glycan array binding signal (z-score)” value [29] was -1.17. For the same binder, the “glycan array binding signal (z-score)” value [30] was 0.34, the “glycan array binding signal (z-score)” value [31] was 0.741 and the “glycan array binding signal (z-score)” value [32] was -0.364. For the same binder, the “glycan array binding signal (z-score)” value [33] was -1.25, the “glycan array binding signal (z-score)” value [34] was -0.879 and the “glycan array binding signal (z-score)” value [35] was 0.077. For the same binder, the “glycan array binding signal (z-score)” value [36] was 2.52, the “glycan array binding signal (z-score)” value [37] was -0.019 and the “glycan array binding signal (z-score)” value [38] was 1.49. The “glycan array binding signal (z-score)” value [39] was -0.304, the “glycan array binding signal (z-score)” value [40] was -0.672 and the “glycan array binding signal (z-score)” value [41] was 0.318. For the same binder, the “glycan array binding signal (z-score)” value [42] was 0.332, the “glycan array binding signal (z-score)” value [43] was 0.334 and the “glycan array binding signal (z-score)” value [44] was -2.22.
